According to US20150250826A1, “ISOLATION AND CHARACTERIZATION OF MUSCLE REGENERATING CELLS” (Joslin Diabetes Center, Inc., priority 2012, published 2015):
For at least one compound, name, drawing or mass did not settle the structure.

Tests used:
Format in all cases: cell-based
[1] = tested on: mouse Kras; p16p19null rhabdomyosarcoma cell line; experiment: In vitro growth assay (MTT) in mouse Kras; p16p19null rhabdomyosarcoma cell line; settings: 100 nMol, 48 hours
Source text: (§1) FIG. 8: In vitro screening of candidate targets. Sarcoma cells were exposed to increasing concentrations of Torin (10, 50, 250 nMol), Rapamycin (10, 50, 100 nMol), RL0061425 (10, 50, 100, 500, 1000 nMol), SB525334 (1, 10, 50, 100, 500 nMol), SD208 (10, 50, 100, 500, 1000 nMol), and Ethanol and DMSO (as a control).
(§2) To begin to evaluate the effects of candidate target genes in sarcoma cells, we have established in vitro assays in which the proliferation of sarcoma cell lines exposed to selected chemical compounds is measured by MTT (3-(4,5-Dimethylthiazol-2-yl)-2,5-diphenyltretrazolium bromide) assay at defined time points. All experiments are carried out in low-passage cell lines established from modeled Kras rhabdomyosarcomas of satellite cell origin. For comparison, we also studied the effects of these compounds in the human embryonal rhabdomyosarcoma cell line RD. In these studies, we focused first on a small set of readily available chemical compounds (obtained from D. Guertin and L. Rubin at the University of Massachusetts and the Harvard Stem Cell Institute, respectively), whose targets include the TGFβ and mammalian target of rapamycin (mTOR) signaling pathways. […]

[2] = tested on: human rhabdomyosarcoma cell line RD; experiment: In vitro growth assay (MTT) in human rhabdomyosarcoma cell line RD; settings: 100 nMol, 96 hours
Source text: as §1, §2

[3] = tested on: mouse Kras; p16p19null sarcoma line; experiment: In vitro growth assay (MTT) in mouse Kras; p16p19null sarcoma line; settings: 100 nMol, 96 hours
Source text: as §1, §2

Measured: cell growth (fold-increase in MTT-uptake)

CO[C@H]1C[C@@H]2CC[C@@H](C)[C@@](O)(O2)C(=O)C(=O)N2CCCC[C@H]2C(=O)O[C@H]([C@H](C)C[C@@H]2CC[C@@H](O)[C@H](OC)C2)CC(=O)[C@H](C)/C=C(\C)[C@@H](O)[C@@H](OC)C(=O)[C@H](C)C[C@H](C)/C=C/C=C/C=C/1C [Rapamycin]
reduced the growth: all assays above
